Laboratory results taken from doi:10.1101/2021.12.20.472892.
These are yes or no findings as the source states them, for the method shown. Binding can be weak; no strength is given.

Chains of the proteins cited; added tags and fusions are not shown. Lines headed by an entry give the natural chain unless they say otherwise; changes in a name come on top.
UniProt Q9SL70: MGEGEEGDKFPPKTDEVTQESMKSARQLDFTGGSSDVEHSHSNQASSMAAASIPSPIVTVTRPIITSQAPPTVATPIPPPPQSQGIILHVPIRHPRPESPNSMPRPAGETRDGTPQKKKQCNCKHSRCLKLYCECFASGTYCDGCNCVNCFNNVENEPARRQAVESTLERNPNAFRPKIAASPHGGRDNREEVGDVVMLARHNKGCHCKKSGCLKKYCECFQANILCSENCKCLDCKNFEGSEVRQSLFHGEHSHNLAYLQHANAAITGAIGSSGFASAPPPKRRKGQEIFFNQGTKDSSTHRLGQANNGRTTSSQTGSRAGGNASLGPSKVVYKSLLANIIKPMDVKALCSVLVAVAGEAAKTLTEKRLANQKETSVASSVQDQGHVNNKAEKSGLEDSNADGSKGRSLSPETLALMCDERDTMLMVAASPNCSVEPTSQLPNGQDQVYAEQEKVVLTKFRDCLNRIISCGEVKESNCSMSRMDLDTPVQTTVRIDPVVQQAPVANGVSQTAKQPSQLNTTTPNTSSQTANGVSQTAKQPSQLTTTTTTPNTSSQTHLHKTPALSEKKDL

Target: T1, RETINOBLASTOMA-RELATED1 (RBR), wild type (Arabidopsis thaliana) (UniProt Q9LKZ3)
T1 sequence: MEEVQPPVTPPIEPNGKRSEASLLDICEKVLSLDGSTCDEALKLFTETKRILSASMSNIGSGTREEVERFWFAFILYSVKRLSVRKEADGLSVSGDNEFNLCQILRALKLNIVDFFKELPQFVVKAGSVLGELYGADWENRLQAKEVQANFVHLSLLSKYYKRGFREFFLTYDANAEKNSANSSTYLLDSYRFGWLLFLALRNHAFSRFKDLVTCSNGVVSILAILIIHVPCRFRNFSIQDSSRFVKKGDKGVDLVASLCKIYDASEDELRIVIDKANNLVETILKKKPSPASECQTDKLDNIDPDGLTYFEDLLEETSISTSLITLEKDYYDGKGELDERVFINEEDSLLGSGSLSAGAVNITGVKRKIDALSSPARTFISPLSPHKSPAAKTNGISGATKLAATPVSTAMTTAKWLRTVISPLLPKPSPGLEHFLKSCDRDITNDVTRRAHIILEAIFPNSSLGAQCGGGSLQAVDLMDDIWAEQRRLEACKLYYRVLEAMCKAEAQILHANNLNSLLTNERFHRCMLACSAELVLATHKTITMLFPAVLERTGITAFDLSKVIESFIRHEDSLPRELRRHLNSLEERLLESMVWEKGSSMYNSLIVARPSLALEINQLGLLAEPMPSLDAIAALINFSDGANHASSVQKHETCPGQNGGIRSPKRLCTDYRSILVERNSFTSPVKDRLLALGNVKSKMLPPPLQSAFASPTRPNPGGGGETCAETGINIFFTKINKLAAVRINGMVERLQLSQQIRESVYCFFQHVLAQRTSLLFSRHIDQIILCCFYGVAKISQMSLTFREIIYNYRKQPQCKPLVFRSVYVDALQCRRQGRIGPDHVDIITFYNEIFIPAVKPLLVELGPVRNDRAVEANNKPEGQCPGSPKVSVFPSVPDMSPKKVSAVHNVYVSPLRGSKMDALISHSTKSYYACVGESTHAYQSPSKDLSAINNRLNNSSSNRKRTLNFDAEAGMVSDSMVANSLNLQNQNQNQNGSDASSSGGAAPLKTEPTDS
Test: two-hybrid

binding	Substance
no binding	TCX6^gcg2 (TCX6 mutated on the canonical LXCXE motif '2') (from UniProt Q9SL70)
binds	TCX6^gcg1 (TCX6 mutated on the LXCXE-like motif '1' within the CXC domain) (from UniProt Q9SL70)
